In paper PMC9101108, “Shifting CCR7 towards Its Monomeric Form Augments CCL19 Binding and Uptake” (Cells, 2022) one finds binding data, which are given here for eight substances.

The chains behind the UniProt entries cited, without tags or fusion partners. Where a name states a change or a piece, a line headed by the entry shows the natural chain unless it says otherwise. A line that says so, or that is headed by a name, gives the form on record, which may keep a tag or linker. Residues count along the entry.
human CCR7 wild-type fused to split-citrine fragments (hCCR7-C1 and hCCR7-C2) (P32248, residues 25-378): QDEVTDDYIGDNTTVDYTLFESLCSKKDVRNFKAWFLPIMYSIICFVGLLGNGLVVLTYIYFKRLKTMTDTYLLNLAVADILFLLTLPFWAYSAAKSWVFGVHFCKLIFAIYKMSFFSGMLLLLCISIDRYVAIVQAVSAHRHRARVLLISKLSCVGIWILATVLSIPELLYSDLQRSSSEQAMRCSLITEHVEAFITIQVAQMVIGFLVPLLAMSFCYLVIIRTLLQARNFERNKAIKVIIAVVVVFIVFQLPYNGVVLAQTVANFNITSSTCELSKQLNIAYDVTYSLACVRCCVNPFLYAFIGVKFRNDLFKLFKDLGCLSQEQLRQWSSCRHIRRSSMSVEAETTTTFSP
human CCR7 SNP V317I fused to split-luciferase parts (P32248, form named): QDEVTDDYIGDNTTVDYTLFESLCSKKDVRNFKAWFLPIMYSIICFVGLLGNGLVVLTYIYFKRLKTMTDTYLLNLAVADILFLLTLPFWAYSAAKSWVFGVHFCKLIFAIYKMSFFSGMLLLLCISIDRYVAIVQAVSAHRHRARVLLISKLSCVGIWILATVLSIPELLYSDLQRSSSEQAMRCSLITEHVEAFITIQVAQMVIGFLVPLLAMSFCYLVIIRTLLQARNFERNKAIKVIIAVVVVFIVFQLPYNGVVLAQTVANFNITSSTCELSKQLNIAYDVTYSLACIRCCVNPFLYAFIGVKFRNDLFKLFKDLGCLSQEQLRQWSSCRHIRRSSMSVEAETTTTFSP
human CCR7 L325S fused to split-citrine fragments (P32248, form named): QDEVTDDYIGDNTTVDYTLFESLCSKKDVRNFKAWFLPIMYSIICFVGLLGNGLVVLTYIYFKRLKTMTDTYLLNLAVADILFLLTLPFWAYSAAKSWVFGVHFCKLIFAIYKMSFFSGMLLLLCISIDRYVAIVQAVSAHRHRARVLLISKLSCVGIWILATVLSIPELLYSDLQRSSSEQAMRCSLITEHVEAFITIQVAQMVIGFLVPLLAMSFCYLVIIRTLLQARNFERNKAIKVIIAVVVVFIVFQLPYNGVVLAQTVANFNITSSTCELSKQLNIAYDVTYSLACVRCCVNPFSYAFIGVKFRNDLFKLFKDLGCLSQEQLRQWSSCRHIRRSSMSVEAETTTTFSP
human CCR7 A315G fused to split-luciferase parts (P32248, form named): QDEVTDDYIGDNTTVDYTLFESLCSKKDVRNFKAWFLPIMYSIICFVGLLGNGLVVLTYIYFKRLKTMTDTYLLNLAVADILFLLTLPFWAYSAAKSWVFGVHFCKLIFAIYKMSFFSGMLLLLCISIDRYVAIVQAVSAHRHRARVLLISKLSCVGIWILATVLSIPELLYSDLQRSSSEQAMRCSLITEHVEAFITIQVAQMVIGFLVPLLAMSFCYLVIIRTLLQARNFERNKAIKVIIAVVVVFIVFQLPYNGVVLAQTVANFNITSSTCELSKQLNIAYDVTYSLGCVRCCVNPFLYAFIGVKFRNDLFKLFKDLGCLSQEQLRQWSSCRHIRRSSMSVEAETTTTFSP

No constants are given. Whether binding was seen depends on the method and setting. Binding seen in cells or lysates may run through a third protein. Some binding calls cover weakened binding; strength is not graded here.

In experiment [1] the target is human CCR7 SNP V317I fused to split-citrine fragments (human) (UniProt P32248). Put plainly: split reporter; split-citrine BiFC; CCR7-C1 and CCR7-C2 co-transfected 1:1 in HeLa cells; complemented citrine fluorescence (523-548 nm) after 30 min at 37 °C, normalised to CCR7 WT.
Experiment [2] addresses human CCR7 wild-type fused to split-luciferase parts (hCCR7-nLuc161 and hCCR7-nLuc11) (human) (UniProt P32248). The experiment in a line: split reporter; split-luciferase complementation; CCR7-nLuc161 and CCR7-nLuc11 co-transfected 1:1 in HeLa cells; 5 uM coelenterazine H, 37 °C, luminescence after 10 min.
In experiment [3] the target is human CCR7 SNP V317I fused to split-luciferase parts (human) (UniProt P32248). The description is as above.
For experiment [4], the target named is human CCR7 wild-type fused to split-citrine fragments (hCCR7-C1 and hCCR7-C2) (human) (UniProt P32248). The experiment in a line: split reporter; split-citrine BiFC; CCR7-C1 and CCR7-C2 co-transfected 1:1 in HeLa cells; complemented citrine fluorescence (523-548 nm) after 30 min at 37 °C, normalised to CCR7 WT.
The target in experiment [5] is human CCR7 L325S fused to split-luciferase parts (human) (UniProt P32248). Put plainly: split reporter; split-luciferase complementation; CCR7-nLuc161 and CCR7-nLuc11 co-transfected 1:1 in HeLa cells; 5 uM coelenterazine H, 37 °C, luminescence after 10 min.
The target of experiment [6] is human CCR7 L325S fused to split-citrine fragments (human) (UniProt P32248). Put plainly: split reporter; split-citrine BiFC; CCR7-C1 and CCR7-C2 co-transfected 1:1 in HeLa cells; complemented citrine fluorescence (523-548 nm) after 30 min at 37 °C, normalised to CCR7 WT.
The target of experiment [7] is human CCR7 A315G fused to split-citrine fragments (human) (UniProt P32248). Described as above.
Experiment [8] concerns the target human CCR7 A315G fused to split-luciferase parts (human) (UniProt P32248). Put plainly: split reporter; split-luciferase complementation; CCR7-nLuc161 and CCR7-nLuc11 co-transfected 1:1 in HeLa cells; 5 uM coelenterazine H, 37 °C, luminescence after 10 min.

Regarding “human CCR7 SNP V317I fused to split-citrine fragments (from UniProt P32248 25-378) (receptor)”, the binding result in experiment [1] is “binds”.

Take “human CCR7 wild-type fused to split-luciferase parts (hCCR7-nLuc161 and hCCR7-nLuc11) (from UniProt P32248 25-378) (receptor)”: the binding result in experiment [2] is “binds”. In the case of “human CCR7 SNP V317I fused to split-luciferase parts (from UniProt P32248 25-378) (receptor)”, in experiment [3], the binding result is on record as “binds”. For the substance “human CCR7 wild-type fused to split-citrine fragments (hCCR7-C1 and hCCR7-C2) (from UniProt P32248 25-378) (receptor)”, the binding entry in experiment [4] was “binds”. On to “human CCR7 L325S fused to split-luciferase parts (from UniProt P32248 25-378) (receptor)”, for which the binding entry in experiment [5] is listed as “binds”. For “human CCR7 L325S fused to split-citrine fragments (from UniProt P32248 25-378) (receptor)”, the binding entry in experiment [6] is reported as “binds”. For the substance “human CCR7 A315G fused to split-citrine fragments (from UniProt P32248 25-378) (receptor)”, the binding result in experiment [7] is reported as “binds”.

For the substance “human CCR7 A315G fused to split-luciferase parts (from UniProt P32248 25-378) (receptor)”, in experiment [8], the binding result is given as “binds”.
